In patent US20240025972A1 one finds binding data, which are given here for 1 substance.

Protein sequences, listed by entry. Tags and fused reporters are not part of them. Lines headed by an entry give the natural chain unless they say otherwise; changes in a name come on top.
UniProt Q9NZQ7: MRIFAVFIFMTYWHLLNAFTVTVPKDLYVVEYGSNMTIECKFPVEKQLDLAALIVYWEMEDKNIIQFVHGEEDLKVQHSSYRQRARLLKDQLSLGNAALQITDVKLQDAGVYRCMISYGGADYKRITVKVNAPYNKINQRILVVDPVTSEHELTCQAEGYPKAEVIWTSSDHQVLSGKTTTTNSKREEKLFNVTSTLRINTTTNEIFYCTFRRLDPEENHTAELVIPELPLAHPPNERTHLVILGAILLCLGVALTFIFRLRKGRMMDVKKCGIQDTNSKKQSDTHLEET

Results are given in words; binding and its absence hold for the method and conditions named. Some entries that bind do so weakly or less than the wild type.

In the assay the target is T1, PD-L2.
T1 sequence: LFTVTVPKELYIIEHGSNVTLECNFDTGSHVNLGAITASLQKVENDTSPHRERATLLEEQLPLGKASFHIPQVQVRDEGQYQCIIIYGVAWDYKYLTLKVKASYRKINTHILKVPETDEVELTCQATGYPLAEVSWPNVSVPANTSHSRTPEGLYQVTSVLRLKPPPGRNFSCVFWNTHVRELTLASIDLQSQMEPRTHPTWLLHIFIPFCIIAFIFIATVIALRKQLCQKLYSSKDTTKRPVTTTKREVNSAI
Kind of assay: cell-surface binding assay: fluorescently labeled query protein on cells transiently expressing the target, fluorescence imaging, normalized fluorescence intensity.

For the substance “PD-L1/CD274 recombinant biotinylated ectodomain tetramerized with fluorescent streptavidin (from UniProt Q9NZQ7 19-238; P22629 37-163) (ligand)”, the binding entry is listed as “binds”.
